Results as given in patent US20220187308A1.
Results are given in words; binding and its absence hold for the method and conditions named. Some results given as binding are weak or reduced against the parent protein; the word gives no strength.

Amino acid sequences for entries named in this document (tags omitted). Residues count along the entry.
UniProt P05231, residues 30-212: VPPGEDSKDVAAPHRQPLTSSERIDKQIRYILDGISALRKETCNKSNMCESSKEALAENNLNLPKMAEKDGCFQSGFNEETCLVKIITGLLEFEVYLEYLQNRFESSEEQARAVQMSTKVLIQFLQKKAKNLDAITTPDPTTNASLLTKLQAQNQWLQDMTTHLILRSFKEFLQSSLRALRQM

Biological target: biotin-labeled IL-6 (UniProt P05231)
Experiment: phage ELISA (Fab displayed on phage) on biotin-labeled IL-6 on a StreptaWell plate, 1.2 mM CaCl2 against 1 mM EDTA

binding: binds
B1: 6KC4-1 #85 antibody (antibody, IgG1, V domains shown)
VH: EVQLVESGGGLVQPGGSLRLSCAASGFTFSSYEMNWVRQAPGKGLEWVSYISSSGSTIYYADSVKGRFTISRDNAKNSLYLQMNSLRAEDTAVYYCARDAPYYYDSSGYTDAFDIWGQGTMVTVSS
VL: EIVLTQSPATLSLSPGERATLSCRASQSVSSYLAWYQQKPGQAPRLLIFDASNRAAGIPARFSGSGSGTDFTLTISSLEPEDFAVYYCQQFDKWVTFGGGTTVEIR
